From the supplement of paper PMC12823440, “Inhibitors supercharge kinase turnover through native proteolytic circuits” (Nature, 2025)
The other results are listed elsewhere or left out. Hit calls seldom repeat between salt and free forms of one compound.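 Kinases, fused to nanoluciferase, were expressed in K562 cells; luminescence was measured every 4 h from 2 to 18 h as percent of control (DMSO = 100%, positive control = 0%). A time point is decreased if signal falls significantly (2 sigma). Hits were called by the authors by a rule that is not shown; the count of time points alone does not decide it.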

By UniProt entry, the sequences of proteins in these tests, tags left out. Where a name states a change or a piece, a line headed by the entry shows the natural chain unless it says otherwise.
UniProt O96013: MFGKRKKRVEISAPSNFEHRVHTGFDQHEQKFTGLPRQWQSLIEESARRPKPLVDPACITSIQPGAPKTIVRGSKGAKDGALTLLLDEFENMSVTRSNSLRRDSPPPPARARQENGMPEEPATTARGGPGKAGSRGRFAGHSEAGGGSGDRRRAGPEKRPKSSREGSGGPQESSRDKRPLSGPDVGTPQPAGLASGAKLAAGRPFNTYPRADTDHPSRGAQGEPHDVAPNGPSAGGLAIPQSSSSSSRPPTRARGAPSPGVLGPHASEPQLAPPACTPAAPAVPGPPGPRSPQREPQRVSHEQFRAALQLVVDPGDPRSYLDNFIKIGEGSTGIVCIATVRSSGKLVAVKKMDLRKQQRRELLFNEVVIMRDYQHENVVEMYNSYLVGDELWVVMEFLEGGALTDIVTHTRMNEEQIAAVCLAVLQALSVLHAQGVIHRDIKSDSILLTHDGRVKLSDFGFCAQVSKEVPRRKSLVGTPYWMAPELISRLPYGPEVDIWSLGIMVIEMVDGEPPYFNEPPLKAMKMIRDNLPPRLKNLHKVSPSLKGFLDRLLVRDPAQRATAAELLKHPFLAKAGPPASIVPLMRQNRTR
UniProt P09619, whole entry: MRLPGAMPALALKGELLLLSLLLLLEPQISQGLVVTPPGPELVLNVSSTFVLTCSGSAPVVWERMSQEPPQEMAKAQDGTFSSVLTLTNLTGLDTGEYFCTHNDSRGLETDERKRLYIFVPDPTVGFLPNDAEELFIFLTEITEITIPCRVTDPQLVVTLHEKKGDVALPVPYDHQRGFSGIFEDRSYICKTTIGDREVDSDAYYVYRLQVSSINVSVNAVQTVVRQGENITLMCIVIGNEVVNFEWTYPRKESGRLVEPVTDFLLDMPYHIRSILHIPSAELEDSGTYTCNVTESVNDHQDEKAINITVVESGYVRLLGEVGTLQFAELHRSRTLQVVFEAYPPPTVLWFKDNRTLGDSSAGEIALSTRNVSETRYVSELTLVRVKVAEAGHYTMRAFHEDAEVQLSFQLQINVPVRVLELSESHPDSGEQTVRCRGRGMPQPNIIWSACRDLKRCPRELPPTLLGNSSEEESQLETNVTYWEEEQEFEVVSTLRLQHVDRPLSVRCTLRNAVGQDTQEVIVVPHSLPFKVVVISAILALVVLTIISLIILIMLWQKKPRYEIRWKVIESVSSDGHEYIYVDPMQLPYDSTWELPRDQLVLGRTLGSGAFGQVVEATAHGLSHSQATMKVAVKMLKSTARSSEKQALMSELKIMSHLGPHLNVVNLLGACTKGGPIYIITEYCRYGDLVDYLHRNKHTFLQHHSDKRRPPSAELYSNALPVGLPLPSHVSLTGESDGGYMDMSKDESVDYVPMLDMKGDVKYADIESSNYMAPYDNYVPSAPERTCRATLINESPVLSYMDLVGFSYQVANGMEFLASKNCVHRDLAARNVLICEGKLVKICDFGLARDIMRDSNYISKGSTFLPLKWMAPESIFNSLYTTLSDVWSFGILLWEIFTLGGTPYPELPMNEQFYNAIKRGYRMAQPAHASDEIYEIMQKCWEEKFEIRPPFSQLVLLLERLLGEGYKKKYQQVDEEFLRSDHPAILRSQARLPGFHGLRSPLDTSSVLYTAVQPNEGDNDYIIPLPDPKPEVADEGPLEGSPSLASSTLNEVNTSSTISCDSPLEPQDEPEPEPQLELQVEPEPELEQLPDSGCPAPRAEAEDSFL
UniProt Q9UBF8: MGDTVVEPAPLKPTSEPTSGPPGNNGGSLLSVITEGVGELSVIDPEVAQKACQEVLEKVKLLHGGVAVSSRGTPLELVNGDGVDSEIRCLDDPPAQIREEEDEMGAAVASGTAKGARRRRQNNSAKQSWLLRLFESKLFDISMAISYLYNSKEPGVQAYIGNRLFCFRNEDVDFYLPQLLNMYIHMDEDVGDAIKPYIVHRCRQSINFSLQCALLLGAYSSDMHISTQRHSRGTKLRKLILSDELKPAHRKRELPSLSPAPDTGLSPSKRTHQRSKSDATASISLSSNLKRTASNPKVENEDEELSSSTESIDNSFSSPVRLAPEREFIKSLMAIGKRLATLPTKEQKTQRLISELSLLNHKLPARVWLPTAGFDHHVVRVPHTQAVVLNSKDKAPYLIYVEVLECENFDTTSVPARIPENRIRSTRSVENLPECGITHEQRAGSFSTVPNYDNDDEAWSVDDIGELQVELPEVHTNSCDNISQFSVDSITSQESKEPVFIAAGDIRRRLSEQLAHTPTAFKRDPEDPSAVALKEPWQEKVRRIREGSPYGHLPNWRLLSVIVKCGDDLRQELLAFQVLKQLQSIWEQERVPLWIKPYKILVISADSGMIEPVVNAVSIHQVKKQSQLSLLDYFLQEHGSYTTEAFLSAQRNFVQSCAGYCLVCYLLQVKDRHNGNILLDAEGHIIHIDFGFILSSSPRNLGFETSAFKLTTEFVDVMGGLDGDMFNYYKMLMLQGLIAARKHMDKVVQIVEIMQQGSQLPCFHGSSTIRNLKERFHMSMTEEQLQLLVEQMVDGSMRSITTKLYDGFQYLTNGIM
UniProt Q13131: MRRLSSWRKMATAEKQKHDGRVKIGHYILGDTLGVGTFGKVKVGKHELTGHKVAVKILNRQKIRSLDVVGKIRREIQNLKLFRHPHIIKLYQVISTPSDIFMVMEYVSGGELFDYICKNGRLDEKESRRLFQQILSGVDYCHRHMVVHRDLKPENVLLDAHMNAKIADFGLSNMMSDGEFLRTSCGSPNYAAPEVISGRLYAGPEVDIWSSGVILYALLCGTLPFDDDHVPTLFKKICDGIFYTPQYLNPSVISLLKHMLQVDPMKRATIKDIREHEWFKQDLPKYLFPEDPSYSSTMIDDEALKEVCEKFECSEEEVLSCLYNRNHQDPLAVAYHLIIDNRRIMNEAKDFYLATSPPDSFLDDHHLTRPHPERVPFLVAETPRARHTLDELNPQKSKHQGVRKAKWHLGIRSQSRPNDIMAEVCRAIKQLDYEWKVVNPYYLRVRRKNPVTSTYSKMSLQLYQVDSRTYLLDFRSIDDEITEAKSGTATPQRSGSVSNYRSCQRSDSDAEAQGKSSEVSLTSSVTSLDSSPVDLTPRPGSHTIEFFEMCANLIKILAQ
UniProt P07949, whole entry, looked up: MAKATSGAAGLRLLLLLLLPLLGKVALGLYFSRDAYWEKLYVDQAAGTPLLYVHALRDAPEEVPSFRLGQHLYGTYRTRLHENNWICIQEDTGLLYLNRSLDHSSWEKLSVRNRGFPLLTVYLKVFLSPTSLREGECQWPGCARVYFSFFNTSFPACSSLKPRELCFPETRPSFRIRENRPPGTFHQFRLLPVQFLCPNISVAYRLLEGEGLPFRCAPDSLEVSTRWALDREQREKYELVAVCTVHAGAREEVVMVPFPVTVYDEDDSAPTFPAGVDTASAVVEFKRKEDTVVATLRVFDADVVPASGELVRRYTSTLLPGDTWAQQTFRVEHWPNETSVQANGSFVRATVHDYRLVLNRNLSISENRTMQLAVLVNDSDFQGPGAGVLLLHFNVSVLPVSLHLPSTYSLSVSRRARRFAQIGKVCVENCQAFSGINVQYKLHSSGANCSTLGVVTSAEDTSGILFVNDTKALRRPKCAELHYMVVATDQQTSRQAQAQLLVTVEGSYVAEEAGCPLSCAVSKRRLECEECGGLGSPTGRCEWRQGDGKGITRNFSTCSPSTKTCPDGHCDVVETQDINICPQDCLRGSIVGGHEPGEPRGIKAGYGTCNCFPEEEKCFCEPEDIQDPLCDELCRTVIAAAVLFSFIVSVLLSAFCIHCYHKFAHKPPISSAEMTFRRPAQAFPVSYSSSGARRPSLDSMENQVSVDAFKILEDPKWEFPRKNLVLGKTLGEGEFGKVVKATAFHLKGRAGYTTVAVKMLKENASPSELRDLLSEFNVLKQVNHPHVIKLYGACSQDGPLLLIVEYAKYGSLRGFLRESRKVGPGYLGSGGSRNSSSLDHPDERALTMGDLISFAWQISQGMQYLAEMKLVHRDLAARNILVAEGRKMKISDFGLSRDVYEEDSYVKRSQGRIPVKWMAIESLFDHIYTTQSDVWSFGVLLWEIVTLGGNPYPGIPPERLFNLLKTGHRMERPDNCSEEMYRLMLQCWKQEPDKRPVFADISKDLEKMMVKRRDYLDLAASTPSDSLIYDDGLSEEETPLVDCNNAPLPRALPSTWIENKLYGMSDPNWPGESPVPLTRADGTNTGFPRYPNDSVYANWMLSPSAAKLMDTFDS
UniProt P07949, whole entry M918T, looked up: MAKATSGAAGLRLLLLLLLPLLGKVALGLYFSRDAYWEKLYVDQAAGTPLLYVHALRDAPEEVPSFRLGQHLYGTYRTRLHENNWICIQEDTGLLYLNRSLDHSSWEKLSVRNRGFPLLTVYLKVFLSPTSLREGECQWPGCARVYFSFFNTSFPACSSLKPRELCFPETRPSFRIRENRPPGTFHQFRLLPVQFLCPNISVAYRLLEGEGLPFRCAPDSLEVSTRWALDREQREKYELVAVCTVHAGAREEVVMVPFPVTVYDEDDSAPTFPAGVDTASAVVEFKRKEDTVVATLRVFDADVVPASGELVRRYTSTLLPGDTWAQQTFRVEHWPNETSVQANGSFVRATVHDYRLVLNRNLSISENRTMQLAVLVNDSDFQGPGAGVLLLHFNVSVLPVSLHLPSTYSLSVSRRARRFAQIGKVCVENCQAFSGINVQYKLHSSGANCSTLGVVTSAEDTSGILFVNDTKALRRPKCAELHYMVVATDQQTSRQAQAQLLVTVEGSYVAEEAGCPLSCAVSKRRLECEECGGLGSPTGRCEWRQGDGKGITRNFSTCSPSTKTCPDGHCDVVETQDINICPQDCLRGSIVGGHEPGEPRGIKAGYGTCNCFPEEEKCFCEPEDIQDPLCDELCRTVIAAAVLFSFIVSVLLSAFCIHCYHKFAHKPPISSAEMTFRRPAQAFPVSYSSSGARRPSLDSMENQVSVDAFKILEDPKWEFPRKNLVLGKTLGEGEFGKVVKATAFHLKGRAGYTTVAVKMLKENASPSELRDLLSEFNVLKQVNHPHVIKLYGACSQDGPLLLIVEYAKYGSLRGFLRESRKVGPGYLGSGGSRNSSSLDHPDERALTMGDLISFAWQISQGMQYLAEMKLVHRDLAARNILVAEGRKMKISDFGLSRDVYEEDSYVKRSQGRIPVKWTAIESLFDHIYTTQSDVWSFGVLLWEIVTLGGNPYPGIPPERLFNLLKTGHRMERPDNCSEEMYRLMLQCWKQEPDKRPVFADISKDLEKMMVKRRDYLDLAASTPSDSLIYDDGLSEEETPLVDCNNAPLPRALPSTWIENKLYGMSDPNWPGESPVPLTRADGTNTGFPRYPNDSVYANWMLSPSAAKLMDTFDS
UniProt Q9BRS2: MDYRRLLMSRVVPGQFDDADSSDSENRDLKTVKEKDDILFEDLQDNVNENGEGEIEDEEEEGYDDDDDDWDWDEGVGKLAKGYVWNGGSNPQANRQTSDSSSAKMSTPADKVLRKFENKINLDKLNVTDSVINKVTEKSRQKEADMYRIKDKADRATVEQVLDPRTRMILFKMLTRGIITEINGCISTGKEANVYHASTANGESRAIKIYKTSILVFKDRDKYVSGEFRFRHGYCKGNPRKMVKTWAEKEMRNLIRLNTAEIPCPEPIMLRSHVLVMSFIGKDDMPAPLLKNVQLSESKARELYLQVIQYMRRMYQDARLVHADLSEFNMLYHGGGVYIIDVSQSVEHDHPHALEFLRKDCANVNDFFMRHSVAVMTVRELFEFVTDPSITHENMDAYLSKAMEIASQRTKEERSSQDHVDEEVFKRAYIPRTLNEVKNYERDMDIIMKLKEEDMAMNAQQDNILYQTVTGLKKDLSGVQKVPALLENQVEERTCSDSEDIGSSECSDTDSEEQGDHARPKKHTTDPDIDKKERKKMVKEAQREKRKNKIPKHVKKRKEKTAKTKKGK
UniProt Q13546: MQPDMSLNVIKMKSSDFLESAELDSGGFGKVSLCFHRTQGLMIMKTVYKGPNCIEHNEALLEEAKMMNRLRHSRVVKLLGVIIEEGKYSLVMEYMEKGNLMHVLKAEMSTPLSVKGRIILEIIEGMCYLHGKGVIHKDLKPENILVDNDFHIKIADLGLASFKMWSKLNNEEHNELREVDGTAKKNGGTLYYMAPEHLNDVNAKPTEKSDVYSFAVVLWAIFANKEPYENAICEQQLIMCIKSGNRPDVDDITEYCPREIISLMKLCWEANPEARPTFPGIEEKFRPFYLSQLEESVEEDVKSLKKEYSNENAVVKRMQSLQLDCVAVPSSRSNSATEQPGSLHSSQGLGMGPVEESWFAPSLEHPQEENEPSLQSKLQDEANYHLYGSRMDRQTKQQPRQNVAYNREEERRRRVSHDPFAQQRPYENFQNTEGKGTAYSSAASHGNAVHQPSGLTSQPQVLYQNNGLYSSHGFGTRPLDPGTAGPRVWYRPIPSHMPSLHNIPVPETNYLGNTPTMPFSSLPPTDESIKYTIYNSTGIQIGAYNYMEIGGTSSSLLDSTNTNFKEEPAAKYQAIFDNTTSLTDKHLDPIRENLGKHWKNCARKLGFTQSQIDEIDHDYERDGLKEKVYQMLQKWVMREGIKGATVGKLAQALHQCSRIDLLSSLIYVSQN

Experiments:
Experiment in all cases: number of time points (of 5) at which kinase-Nluc abundance scored as decreased, DMSO-normalised (count); higher = more persistent destabilization
Conditions in all cases: K562; 2-18 h
NTRK3 = NTRK3 (UniProt Q16288)
PAK4 = PAK4 (UniProt O96013)
PBK = PBK (UniProt Q96KB5)
PDGFRB = PDGFRB (UniProt P09619)
PDK1 = PDK1 (UniProt Q15118)
PDPK1 = PDPK1 (UniProt O15530)
PIK4CA = PIK4CA (UniProt P42356)
PIK4CB = PIK4CB (UniProt Q9UBF8)
PLK1 = PLK1 (UniProt P53350)
PRKAA1 = PRKAA1 (UniProt Q13131)
PRKCA = PRKCA (UniProt P17252)
PTK2 = PTK2 (UniProt Q05397)
PTK2B = PTK2B (UniProt Q14289)
RAF1 = RAF1 (UniProt P04049)
[1] = target: RAF1_S257L (clone: RAF1_mut) (UniProt P04049)
RET = RET (UniProt P07949)
[2] = target: RET_M918T (clone: RET_mut) (UniProt P07949)
RIOK1 = RIOK1 (UniProt Q9BRS2)
RIPK1 = RIPK1 (UniProt Q13546)
RIPK2 = RIPK2 (UniProt O43353)

| SMILES | number of time points (NTRK3) | number of time points (PAK4) | number of time points (PBK) | number of time points (PDGFRB) | number of time points (PDK1) | number of time points (PDPK1) | number of time points (PIK4CA) | number of time points (PIK4CB) | number of time points (PLK1) | number of time points (PRKAA1) | number of time points (PRKCA) | number of time points (PTK2) | number of time points (PTK2B) | number of time points (RAF1) | number of time points [1] | number of time points (RET) | number of time points [2] | number of time points (RIOK1) | number of time points (RIPK1) | number of time points (RIPK2) |
| --- | --- | --- | --- | --- | --- | --- | --- | --- | --- | --- | --- | --- | --- | --- | --- | --- | --- | --- | --- | --- |
| N[C@@H]1CCCN(c2c(/C=C3\SC(=O)NC3=O)cccc2-c2ccccc2)C1 (10 µM) | 0 | 0 | 0 | 0 | 0 | 0 | 0 | 0 | 0 | 0 | 0 | 0 | 0 | 0 | 3 | 0 | 0 | 2 | 0 | 0 |
| NC(=O)c1cnc(-c2ccc(C3(N)CCC3)cc2)c(-c2ccccc2)c1 (10 µM) | 0 | 0 | 0 | 0 | 0 | 0 | 0 | 0 | 0 | 0 | 0 | 0 | 0 | 0 | 0 | 0 | 0 | 0 | 0 | 0 |
| Cc1cccc(-c2[nH]ncc2-c2ccnc3ccccc23)n1 (10 µM) | 0 | 0 | 0 | 0 | 0 | 0 | 0 | 0 | 0 | 0 | 0 | 0 | 0 | 0 | 0 | 0 | 0 | 0 | 0 | 0 |
| O=C1Nc2ccc(I)cc2/C1=C/c1cc(Br)c(O)c(Br)c1 (10 µM) | 0 | 0 | 0 | 4 | 0 | 0 | 0 | 1 | 0 | 0 | 4 | 5 | 0 | 3 | 0 | 0 | 0 | 0 | 0 | 0 |
| CC(C)=CCC/C(C)=C/CC/C(C)=C/C=C/C(C)=C/C(=O)O [Peretinoin] (10 µM) | 0 | 0 | 0 | 0 | 0 | 0 | 0 | 0 | 0 | 0 | 0 | 0 | 0 | 0 | 0 | 0 | 0 | 0 | 0 | 0 |
| Nc1nc(N)c2nc(-c3cccc(O)c3)c(-c3cccc(O)c3)nc2n1 (10 µM) | 0 | 0 | 0 | 0 | 0 | 0 | 0 | 0 | 0 | 0 | 0 | 0 | 0 | 0 | 0 | 0 | 0 | 0 | 0 | 0 |
| CCCn1/c(=N/C(=O)c2cccc(C(N)=O)c2)[nH]c2ccccc21 [Takinib] (10 µM) | 0 | 0 | 0 | 0 | 0 | 0 | 0 | 0 | 0 | 0 | 0 | 0 | 0 | 0 | 0 | 0 | 0 | 0 | 0 | 0 |
| O=C(Nc1cc(Cl)cc2c1[nH]c1cnccc12)c1cccnc1 (10 µM) | 0 | 0 | 0 | 0 | 0 | 0 | 0 | 0 | 0 | 0 | 0 | 0 | 0 | 0 | 0 | 0 | 0 | 0 | 0 | 0 |
| Clc1ccc(C(c2ccc(Cl)cc2)[n+]2ccn(CC(OCc3ccc(Cl)cc3Cl)c3ccc(Cl)cc3Cl)c2)cc1 (stereo not given) [Calmidazolium chloride] (2.5 µM) | 0 | 0 | 0 | 0 | 0 | 0 | 0 | 2 | 0 | 0 | 0 | 1 | 0 | 0 | 3 | 0 | 0 | 0 | 3 | 0 |
| COc1cc2ncnc(Oc3ccc(CC(=O)Nc4cnn(C(C)C)c4)cc3)c2cc1OC (10 µM) | 3 | 0 | 0 | 0 | 0 | 1 | 0 | 0 | 0 | 0 | 0 | 0 | 0 | 0 | 2 | 0 | 0 | 0 | 0 | 0 |
| CC1(N)CCN(c2cccnc2NC(=O)c2nc(-c3ncccc3C(F)(F)F)cnc2N)CC1 [Darovasertib] (10 µM) | 0 | 0 | 0 | 0 | 0 | 0 | 0 | 0 | 0 | 0 | 0 | 0 | 0 | 0 | 0 | 0 | 0 | 0 | 0 | 0 |
| Cc1ccc(NC(=O)Nc2cc(C(F)(F)F)ccc2F)cc1Nc1ccc2c(c1)NC(=O)/C2=C\c1ccc[nH]1 (2.5 µM) | 3 | 0 | 0 | 0 | 0 | 0 | 0 | 0 | 0 | 0 | 0 | 0 | 0 | 0 | 0 | 1 | 0 | 0 | 0 | 0 |
| c1nn(C2CCOCC2)cc1Nc1ncc2nnn(-c3ccc4cn[nH]c4c3)c2n1 (10 µM) | 0 | 0 | 0 | 0 | 0 | 0 | 0 | 0 | 0 | 0 | 0 | 0 | 0 | 0 | 0 | 0 | 0 | 0 | 0 | 0 |
| O=c1[nH]ccc2nc(-c3ccc(CN4CCC(c5nc(-c6ccccn6)n[nH]5)CC4)cc3)c(-c3ccccc3)cc12 (10 µM) | 0 | 0 | 0 | 0 | 0 | 0 | 0 | 0 | 0 | 0 | 0 | 0 | 0 | 0 | 0 | 0 | 0 | 0 | 0 | 0 |
| COc1cc(N2CCC(N3CCN(C)CC3)CC2)ccc1Nc1ncc(Cl)c(-c2c[nH]c3ccccc23)n1 (2.5 µM) | 0 | 0 | 0 | 0 | 0 | 0 | 0 | 0 | 0 | 0 | 0 | 0 | 0 | 0 | 0 | 0 | 0 | 0 | 0 | 0 |
| Cc1cc(Nc2cc(N)ncn2)c(=O)n2c1C(=O)NC21CCCCC1 [Tomivosertib] (10 µM) | 0 | 0 | 0 | 0 | 0 | 0 | 0 | 0 | 0 | 0 | 0 | 0 | 0 | 0 | 0 | 0 | 0 | 0 | 0 | 0 |
| Cc1ccc(C(=O)NC2CC2)cc1-n1ncc(C(=O)c2cccc(C#N)c2)c1N [Acumapimod] (10 µM) | 0 | 0 | 0 | 0 | 0 | 0 | 0 | 0 | 0 | 0 | 0 | 0 | 0 | 0 | 3 | 0 | 0 | 0 | 0 | 0 |
| CN1CCC(CNc2ccc3ncc(-c4cccc(OC(F)(F)F)c4)n3n2)CC1 (2.5 µM) | 0 | 0 | 0 | 0 | 0 | 0 | 0 | 0 | 0 | 0 | 0 | 0 | 0 | 0 | 0 | 0 | 0 | 0 | 0 | 0 |
| CCN(CC)CCCC(C)Nc1nc(C)cc(Nc2ccc3nc(C)cc(N)c3c2)n1 (stereo not given) (10 µM) | 0 | 0 | 0 | 0 | 0 | 0 | 0 | 0 | 0 | 0 | 0 | 0 | 0 | 0 | 0 | 0 | 0 | 0 | 0 | 0 |
| Nc1ncc(-c2ccnc(Nc3ccncc3)n2)c(CC2CC2)n1 (10 µM) | 0 | 0 | 0 | 0 | 0 | 2 | 0 | 0 | 1 | 0 | 0 | 0 | 0 | 2 | 1 | 0 | 0 | 0 | 1 | 0 |
| Cc1nc[nH]c1CN1CCN(C(=O)N[C@@H](CC(C)C)C(=O)O)[C@@H](Cc2ccccc2)C1=O (10 µM) | 0 | 0 | 0 | 0 | 0 | 0 | 0 | 0 | 0 | 0 | 0 | 0 | 0 | 0 | 0 | 0 | 0 | 0 | 0 | 0 |
| C[C@H]1O[C@@H](O[C@H]2CC[C@@]3(C)[C@@H](CC[C@]4(C)[C@@H]3C=C[C@]35OC[C@@]6(CCC(C)(C)C[C@H]63)[C@H](O)C[C@]54C)[C@]2(C)CO)[C@H](O)[C@@H](O[C@@H]2O[C@H](CO)[C@@H](O)[C@H](O)[C@H]2O)[C@H]1O [Saikosaponin D] (2.5 µM) | 0 | 0 | 0 | 0 | 0 | 0 | 0 | 0 | 0 | 0 | 0 | 0 | 0 | 0 | 1 | 0 | 0 | 0 | 0 | 0 |
| Cc1cc(C(=O)NOCCO)c(Nc2ccc(I)cc2F)n(C)c1=O (10 µM) | 0 | 0 | 0 | 0 | 0 | 0 | 0 | 0 | 0 | 0 | 0 | 0 | 1 | 1 | 0 | 1 | 0 | 0 | 0 | 1 |

Structural class, the entries above with an aryl methoxy group.

| SMILES | number of time points (NTRK3) | number of time points (PAK4) | number of time points (PBK) | number of time points (PDGFRB) | number of time points (PDK1) | number of time points (PDPK1) | number of time points (PIK4CA) | number of time points (PIK4CB) | number of time points (PLK1) | number of time points (PRKAA1) | number of time points (PRKCA) | number of time points (PTK2) | number of time points (PTK2B) | number of time points (RAF1) | number of time points [1] | number of time points (RET) | number of time points [2] | number of time points (RIOK1) | number of time points (RIPK1) | number of time points (RIPK2) |
| --- | --- | --- | --- | --- | --- | --- | --- | --- | --- | --- | --- | --- | --- | --- | --- | --- | --- | --- | --- | --- |
| COc1cc2ncnc(Oc3ccc(CC(=O)Nc4cnn(C(C)C)c4)cc3)c2cc1OC (10 µM) | 3 | 0 | 0 | 0 | 0 | 1 | 0 | 0 | 0 | 0 | 0 | 0 | 0 | 0 | 2 | 0 | 0 | 0 | 0 | 0 |
| COc1cc(N2CCC(N3CCN(C)CC3)CC2)ccc1Nc1ncc(Cl)c(-c2c[nH]c3ccccc23)n1 (2.5 µM) | 0 | 0 | 0 | 0 | 0 | 0 | 0 | 0 | 0 | 0 | 0 | 0 | 0 | 0 | 0 | 0 | 0 | 0 | 0 | 0 |
